Some results were stated once for a whole list of compounds, not compound by compound. At least one structure is not confirmed: it was looked up by name or label, or the drawing left a doubt. Some compounds share one range, which may span the group rather than tell each member.
Legend:
[1] = test system: pancreatic cancer cell lines of mutation RONΔ155 type (Panc-1 and Capan-1) and RONΔ160 type (Mia-PaCa2); experiment: MTS assay, text summary over the three pancreatic cancer cell lines; type: cell-based; details: Panc-1, Capan-1, Mia-PaCa2; 0.000001 μM to 10 μM, 72 hours
Experimental: In order to compare and confirm the cell growth inhibitory ability of Examples 1 (WM-S1-030) to 5 and positive control 1 (BMS-777607) in two pancreatic cancer cell lines ofa mutation RONΔ155 type (Panc-1 and Capan-1) and one pancreatic cancer cell line of a mutation RONΔ160 type (Mia-PaCa2), MTS assay was carried out.
For MTS assay, 1,000 cells of each pancreatic cancer cell line per well were seeded in a 96-well-plate, and 24 hours later, treated with the compounds of Examples 1 to 5 and positive control 1 at various concentrations (0.000001 μM to 10 μM) in 100 μL of 10% FBS-RPMI medium (Welgene) per each well. Thereafter, the cells were cultured for 72 hours. 20 μL of MTS solution (Promega) was added and cultured for 2 hours, and then absorbance was measured at 490 nm. The cytotoxicity was analyzed by deriving the IC50 for the compounds of Examples 1 to 5 and positive control 1 using GraphPad Prism™ 5.

[2] = test system: pancreatic cancer cell lines of a mutation RON type (Panc-1, Capan-1, Mia-PaCa2); experiment: Cell killing efficacy, trypan blue exclusion assay; type: cell-based; details: 1 μM and 5 μM, 48 hours
Experimental: FIGS. 1A to IC illustrate the results obtained by comparing and confirming the cell killing efficacy for the Panc-1 and Capan-1 cell lines, which are pancreatic cancer cell lines of a mutation RONΔ155 type, and the Mia-PaCa2 cell line, which is a pancreatic cancer cell line of a mutation RONΔ160 type, having been treated with the compounds of Examples 1 (WM-S1-030) to 5 and positive control 1 (BMS-777607) at a concentration of 1 μM and 5 μM, respectively.
Two pancreatic cancer cell lines of a mutation RONΔ155 type (Panc-1 and Capan-1) and one pancreatic cancer cell line of a mutation RONΔ160 type (Mia-PaCa2) were dispensed, and 24 hours later, treated with 1 μM and 5 μM of the compounds of Examples 1 (WM-S1-030) to 5 and positive control 1 (BMS-777607), respectively, while replacing the medium. After 48 hours, the cells and the cell fluid were harvested (1,500 rpm, 4 minutes), and live cells and dead cells were quantified through trypan blue (15250-061, Gibco) exclusion assay. Statistical analysis was performed using T-test in Excel.

Row | SMILES | response to the drug / cell growth inhibition (MTS) [1] | cell death / response to the drug (trypan blue exclusion) [2]
1 | CCOc1ccn(-c2ccccc2)c(=O)c1C(=O)Nc1ccc(Oc2ccnc3cc(-c4ccc(CNCCOC)cn4)sc23)c(F)c1.Cl [Example 2, 4-ethoxy-N-(3-fluoro-4-{[2(5-{[(2-methoxyethyl)amino]methyl}pyridin-2-yl)thieno[3,2-b]pyridin-7-yl]oxy}phenyl)-2-oxo-1-phenyl-1,2-dihydropyridine-3-carboxamide hydrochloride] | exhibited high response to Examples 1 to 5 and the cell growth was inhibited | cell death was induced
2 | COc1cc2c(Oc3ccc(NC(=O)c4c5c(cn(-c6ccc(F)cc6)c4=O)CCO5)cc3F)ccnc2cc1OCCCN1CC(C#N)C1 [Example 5, N-[4-({7-[3-(3-cyanoazetidin-1-yl)propoxy]-6-methoxyquinolin-4-yl}oxy)-3-fluorophenyl]-5-(4-fluorophenyl)-6-oxo-2,3,5,6-tetrahydrofuro[3,2-c]pyridine-7-carboxamide] | exhibited high response to Examples 1 to 5 and the cell growth was inhibited | cell death was induced
3 | CCOc1ccn(-c2ccccc2)c(=O)c1C(=O)Nc1ccc(Oc2ccnc3cc(-c4ccc(CN5CCN(C)CC5)cn4)sc23)c(F)c1.Cl [Example 3, 4-ethoxy-N-{3-fluoro-4-[(2-(5-[(-methylpiperazin-1-yl)methyl]pyridin-2-yl)thieno[3,2-b]pyridin-7-yl)oxy]phenyl}-2-oxo-1-phenyl-1,2-dihydropyridine-3-carboxamide hydrochloride] | exhibited high response to Examples 1 to 5 and the cell growth was inhibited | cell death was induced
4 | COc1cc2c(Oc3ccc(NC(=O)c4c5c(cn(-c6ccc(F)cc6)c4=O)CCO5)cc3F)ccnc2cc1OCCN1CCOCC1 [Example 4, N-(3-fluoro-4-{[6-methoxy-7-(2-morpholinoethoxy)quinolin-4-yl]oxy}phenyl)-5-(4-fluorophenyl)-6-oxo-2,3,5,6-tetrahydrofuro[3,2-c]pyridine-7-carboxamide] | exhibited high response to Examples 1 to 5 and the cell growth was inhibited | cell death was induced
5 | CCOc1ccn(-c2ccc(F)cc2)c(=O)c1C(=O)Nc1ccc(Oc2ccnc3cc(-c4ccc(CN5CCOCC5)cn4)sc23)c(F)c1.Cl [Example 1, 4-ethoxy-N-[3-fluoro-4-({2-[5-(morpholinomethyl)pyridin-2-yl]thieno[3,2-b]pyridin-7-yl}oxy)phenyl]-1-(4-fluorophenyl)-2-oxo-1,2-dihydropyridine-3-carboxamide hydrochloride] | exhibited high response to Examples 1 to 5 and the cell growth was inhibited | cell death was induced

Source: patent publication US20230242521A1, “PHARMACEUTICAL COMPOSITION FOR PREVENTING OR TREATING PANCREATIC CANCER ASSOCIATED WITH RON MUTATION AND METHOD USING SAME” (WELLMARKER BIO CO., LTD., priority 2020, published 2023)
